The supplement of paper PMC7411640
Where a name gives a salt, the structure may show the parent alone. This is one part of the list. Single values are uncertain here, since repeats match poorly.

Test system: MDA-MB-468
Assay: phospho-S6 immunofluorescence (DAPI-normalised), per-plate z-score; higher = higher phospho-S6 signal (less pathway suppression)
Conditions: 24 h
Method: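 GPCR-targeted compound library (MedChemExpress HY-L006) tested on MDA-MB-468 PTEN-null TNBC cells in 384-well plates at 0.1, 1 or 10 uM, combined with vehicle, GDC0941 450 nM or lapatinib 1 uM, for 24 h. Phospho-S6 (S240/244) immunofluorescence normalised to DAPI and expressed as a per-plate z-score; values are the mean of biological triplicates.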

[1] = compound 0.1 µM, co-treatment: GDC0941 450 nM
[2] = compound 0.1 µM, co-treatment: lapatinib 1 uM
[3] = compound 0.1 µM, co-treatment: vehicle
[4] = compound 1 µM, co-treatment: GDC0941 450 nM
[5] = compound 1 µM, co-treatment: lapatinib 1 uM
[6] = compound 1 µM, co-treatment: vehicle
[7] = compound 10 µM, co-treatment: GDC0941 450 nM
[8] = compound 10 µM, co-treatment: lapatinib 1 uM
[9] = compound 10 µM, co-treatment: vehicle

SMILES	phospho-S6 immunofluorescence (z-score) [1]	phospho-S6 immunofluorescence (z-score) [2]	phospho-S6 immunofluorescence (z-score) [3]	phospho-S6 immunofluorescence (z-score) [4]	phospho-S6 immunofluorescence (z-score) [5]	phospho-S6 immunofluorescence (z-score) [6]	phospho-S6 immunofluorescence (z-score) [7]	phospho-S6 immunofluorescence (z-score) [8]	phospho-S6 immunofluorescence (z-score) [9]
CCC(=O)NCC[C@@H]1CCc2ccc3c(c21)CCO3 [Ramelteon]	0.1	-1.43	-0.49	0.02	-0.6	-0.79	-0.04	-0.4	0.21
CN1CCC[C@@H]1CCO[C@](C)(c1ccccc1)c1ccc(Cl)cc1 [Clemastine (fumarate)]	0.32	1.25	1.3	1.54	0.67	0.82	0.73	-3.01	1.46
CCCN[C@@H]1CCc2nc(N)sc2C1 [Dexpramipexole (dihydrochloride)]	-0.08	-0.67	-0.41	0.83	0.96	0.64	1.16	0.15	0.4
Cn1c(=O)c2c(ncn2CC(O)CO)n(C)c1=O (stereo not drawn) [Diphylline]	0.41	-0.34	0.18	-0.8	-0.66	-0.08	-0.54	-0.14	-0.15
Cc1cc(O[C@@H](CCC(F)(F)F)c2ccc(C(=O)NCCC(=O)O)cc2)cc(C)c1-c1ccc(C(C)(C)C)cc1 [Adomeglivant]	0.71	-0.67	1.32	-1.3	-0.27	0.76	-4.72	-7.2	-6.79
c1ccc(CN(CC2=NCCN2)c2ccccc2)cc1 [Antazoline (hydrochloride)]	0.54	-0.07	0.79	0.15	0.63	0.68	0.27	0.23	1.23
CC(C)c1noc(N2CCC(COc3ccc(-c4ccc(S(C)(=O)=O)cc4)nc3)CC2)n1	0.16	-0.65	-0.49	-0.48	-1.13	-0.37	-2.9	-4.91	-6.22
